{"source": "paper PMC3378550", "molecules": {"B1": {"name": "PPARα, endogenous in mouse heart (protein, UniProt P23204 1-468)", "chain": "MVDTESPICPLSPLEADDLESPLSEEFLQEMGNIQEISQSIGEESSGSFGFADYQYLGSCPGSEGSVITDTLSPASSPSSVSCPVIPASTDESPGSALNIECRICGDKASGYHYGVHACEGCKGFFRRTIRLKLVYDKCDRSCKIQKKNRNKCQYCRFHKCLSVGMSHNAIRFGRMPRSEKAKLKAEILTCEHDLKDSETADLKSLGKRIHEAYLKNFNMNKVKARVILAGKTSNNPPFVIHDMETLCMAEKTLVAKMVANGVEDKEAEVRFFHCCQCMSVETVTELTEFAKAIPGFANLDLNDQVTLLKYGVYEAIFTMLSSLMNKDGMLIAYGNGFITREFLKNLRKPFCDIMEPKFDFAMKFNALELDDSDISLFVAAIICCGDRPGLLNIGYIEKLQEGIVHVLKLHLQSNHPDDTFLFPKLLQKMVDLRQLVTEHAQLVQVIKKTESDAALHPLLQEIYRDMY"}}, "key": {"[1]": {"molecular_target": "T1, PPARα, endogenous in mouse heart (mouse (endogenous in mouse heart)) (UniProt P23204)", "T1 sequence": "B1 chain", "test": "co-IP; heart lysates of exercised or sedentary mice treated with vehicle or U0126; IP with anti-MEK1 or anti-PPARα antibody, Western blot; endogenous proteins"}, "[2]": {"molecular_target": "MEK1, endogenous in mouse heart (mouse (endogenous in mouse heart)) (UniProt P31938)", "test": "co-IP; heart lysates of exercised or sedentary mice treated with vehicle or U0126; IP with anti-MEK1 or anti-PPARα antibody, Western blot; endogenous proteins"}}, "note": "Results are given in words; binding and its absence hold for the method and conditions named. Binding seen in cells or lysates may run through a third protein. Some binding calls cover weakened binding; strength is not graded here."}
{"molecule": "MEK1, endogenous in mouse heart (from UniProt P31938 1-393) (enzyme)", "values": [{"measurement": "binding", "setting": "[1]", "value": "binds"}]}
{"molecule": "B1", "values": [{"measurement": "binding", "setting": "[2]", "value": "binds"}]}
